Measured values: PubChem BioAssay AID1347423 (Functional Genomics Laboratory (NCATS/FGL), 2020)
Screen size: about 52,000 sequences; about 210 (0.4%) were called active.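 How the source made its calls: active means gene whose silencing raises cell survival under the drug, median off-target-corrected z-score across its silencing RNAs 2 or more; inactive means the rest.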 The list shows a part of the results.

assay: Resistance to Poly (ADP-Ribose) Polymerase inhibitor: Gene Identification via Genome-wide siRNA Screen; settings: mouse BRCA2 R2336H ES cells, olaparib, CellTiter-Glo viability; stronger effect = higher value
Summary of the method: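 Mouse BRCA2 R2336H ES cells were reverse-transfected with siRNA (20 nM final), treated at 48 h with 500 nM olaparib, and read by CellTiter-Glo after 72 h. Scores: MAD-based z per siRNA, median per gene, seed off-target correction.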

| Sequence | z-score |
| --- | --- |
| GCUGUGUUCUAACUAACUATT against Aldh9a1 | inactive: 0.507 |
| GGACAAACAAGUGAAAUACTT against Morf4l1 | inactive: -0.354 |
| GGGAAAAUUUCCUCUGACUTT against 2200003E03Rik | inactive: -2.1 |
| GCAUUCGAAGCUCUUCUAATT against 4930474M22Rik | inactive: -0.432 |
| GGGAUACAAUGUAACAUACTT against L1cam | inactive: 0.404 |
| CCGAGUAAGAAGGACGAUATT against Sh3tc1 | inactive: 1.05 |
| CCUGGCAGUAGGUUUGUAATT against Plcd3 | inactive: -0.553 |
| GGCACUAGGUGGAGUCAUUTT against Slco1b2 | inactive: -0.273 |
| GGUUAAAGGAGCAGUCUAUTT against Dbn1 | inactive: -1.65 |
| GGGAAUGCUCCAAACGACATT against Bsg | inactive: -0.383 |
| GGAACUCAGUCAGGACCAATT against 0610008F07Rik | inactive: 0.986 |
| GGUAUCUUUAGGUUUCUGGTT against V2r14 | inactive: -0.00592 |
| GGCUCUUUCACACCUGGUATT against Scgb3a2 | inactive: -0.915 |
| GGAACUCCUCAAACGAAGGTT against Bmp3 | inactive: 0.312 |
| CGUGGACCUAUCCCACAAUTT against 9530051K01Rik | inactive: -0.879 |
| GGCAUGUAUCUCAACAUGUTT against Fuk | inactive: 0.589 |
| AACCAGUCCUUGAAAAGAGTT against Olfr128 | inactive: 1.98 |
| CCUAAAAACUCUGGAUUCUTT against A630054L15Rik | inactive: 1.93 |
| GCUGUCCCGAGCUGAACAATT against Nell2 | inactive: -0.838 |
| GGAACUCGAGUUUAUCCAUTT against 1700020N01Rik | inactive: -1.04 |
| CCUAGGUCAUAUUUCUCCATT against Bgn | inactive: 0.756 |
| GGCAUAGGCAUUUUCAAAATT against Gucy2f | inactive: 0.332 |
| GGUUUUGGGUCUAUGCUUCTT against BC031781 | inactive: 0.579 |
| GCUUACAAGUUGCUACUGGTT against Dnajc8 | inactive: -0.635 |
| GGUUAAAAAUAAUGUGGGCTT against Sval2 | inactive: 0.814 |
| GCUGUUGGUGGAAUGGAAGTT against Slc5a11 | inactive: 1.03 |

Single entries from above.
GGCAUGUAUCUCAACAUGUTT against Fuk | z-score: inactive: 0.589
CGUGGACCUAUCCCACAAUTT against 9530051K01Rik | z-score: inactive: -0.879
GGGAAUGCUCCAAACGACATT against Bsg | z-score: inactive: -0.383
GGUUAAAAAUAAUGUGGGCTT against Sval2 | z-score: inactive: 0.814
GGUAUCUUUAGGUUUCUGGTT against V2r14 | z-score: inactive: -0.00592

More entries

| Sequence | z-score |
| --- | --- |
| GGGAUCCAGUUGAGGAUCUTT against 5730467H21Rik | inactive: 1.34 |
| CGUCCAGAGACCAUUAUAATT against D14Ertd581e | inactive: 1.37 |
| GCAGGAUGUGACAGAUACATT against Pdcd2 | inactive: -2.09 |
| GGGCAUGCAGAUAAAAUAATT against Akr1b8 | inactive: -1.7 |
| CCAACUUCCAAGCUUAAAATT against Ucp3 | inactive: 0.451 |
| GGACUGUUAGCUCGCUUUGTT against Pxmp3 | inactive: -0.0586 |
| GGUUAAGGAAUAGUAACUCTT against LOC114601 | inactive: -0.326 |
| GGGAGUGAAGUUUCACAGATT against Slamf6 | inactive: -0.0337 |
| CCACCUAUCUCUAACUACCTT against Mrpl40 | inactive: 0.593 |
| GGUCAGGCUGAGGAAUUCATT against Cyp2s1 | inactive: -0.897 |
| GAACUACCUGGACUUCCACTT against Cox6b | inactive: 0.266 |
| GGGUACACCUUGCCGAUGUTT against B130008E12Rik | inactive: -0.0846 |
| CCUAAUGCAGUCCAGAUGGTT against 4930432J16Rik | inactive: -3.08 |
| UCACUUGAGUUGACCAACATT against Olfr1347 | inactive: -0.35 |
| GCACAACAGCUAGCAAAUATT against Gm347 | inactive: -1.08 |
| GGAUAUAGAGCUAAGUAAGTT against Dgka | inactive: -0.0954 |
| GCCGGAAGAAACUCAUGCUTT against Mad2l1bp | inactive: -0.104 |
| GGCCCAGAACAAGAUCAAGTT against Ldb3 | inactive: 0.159 |
| GAUGCUAACCAACCUUGGATT against Olfr134 | inactive: -0.129 |
| CGCGCUGAUAUUAACGGUGTT against Olfr70 | inactive: -0.579 |
| GGUGGCUAUGGAAACUACCTT against Thrap3 | inactive: -2.03 |
| GCUAACAGGUCAUUUAUCCTT against 2310075C12Rik | inactive: 0.391 |
| GCCUAUUUCCGUGAACCCGTT against Mgmt | inactive: -0.718 |
| GGAGGAAUUUCAGUUUCUGTT against Pml | inactive: 0.306 |
| CCGAUCUUUCCCUUAUCUUTT against Vamp2 | inactive: -0.314 |
| GGACCAUUUUCUAACAGACTT against Slc12a9 | inactive: 1.03 |

| Sequence | z-score |
| --- | --- |
| GCAACGGAGCGGAAAAGAATT against D230039L06Rik | inactive: -2.44 |
| GGAUUUACUGUGGUAUGGGTT against Slc16a13 | inactive: 0.915 |
| GCAGUACUAAGGAAGAUAUTT against 4921532K09Rik | inactive: -0.416 |
| GGAAACCUGUUUGAUUUUGTT against Aasdhppt | inactive: 1.07 |
| GCUUCAGGAAGAGUUGCAGTT against Asb7 | inactive: 0.339 |
| GGUAAGAAAACUGACCUUATT against C130068O12Rik | inactive: -1.37 |
| GGUAAUGCCCUAUACUUCATT against Sgcd | inactive: -1.73 |
| GGAGCAUCCUGGCAAACAGTT against Ostb | inactive: -1.64 |
| GGAACUUAAUGACUCUGUGTT against Fv1 | inactive: -0.00429 |
| GGAAGAUAUUCACAGGGUATT against Wnt9b | inactive: -1.33 |
| GCAUUUCCUGUGGUCUAUGTT against Itlnb | inactive: -1.51 |
| GGUCUUUAUCUACCAUGGGTT against Itga7 | inactive: -0.0997 |
| GGACGGACAAAUUGAUGCUTT against Sri | inactive: -0.434 |
| GGUGGAAUACUUGGAGCAGTT against Gstm4 | inactive: 0.295 |
| CCUGCAUUAUUUAUGAAAGTT against Mfap3l | inactive: -1.49 |
| GGAGGAUGCUGCCUAUGACTT against B4galt2 | inactive: -0.428 |
| GGCGGUUUUAGUGAAUAACTT against Golph2 | inactive: 0.0942 |
| GGGCAAUCUGCUAUUCUCUTT against C920005C14Rik | inactive: -0.755 |
| GCCGUGUUCAUGAAUAAACTT against Glce | inactive: 0.0698 |
| GUUCCCGUUCUACGAGAAGTT against Foxl2 | inactive: 1.76 |
| GGAAGGACAACACUGCACCTT against Tnfrsf5 | inactive: 0.657 |
| GGUCACCAUAGAUCGGCAATT against Slamf7 | inactive: -1.04 |
| GGGACUGCUAGUAAAGUUCTT against Cabin1 | inactive: -0.712 |
| GCAAUGGACACUGUAUCAATT against Gab2 | inactive: 1.5 |
| GGCGGGUUUGCUGAAUAACTT against BC004853 | inactive: 0.88 |
| CGAGAGCGAGUGAAAGAAGTT against Eif4enif1 | inactive: -1.67 |

| Sequence | z-score |
| --- | --- |
| GCGAUAUUGACUGUGUAUATT against Ypel5 | inactive: -0.143 |
| GGAAAAAGUUCCAAAAGAATT against Kif21b | inactive: -1.46 |
| GGGCUGUUCCAAAACACAGTT against A930017E24Rik | inactive: -0.0576 |
| GGAAUUAGACUUCUGCGUCTT against Adamts15 | inactive: -0.347 |
| GGAAAGUCCACUCUAGUCCTT against Dusp16 | inactive: -0.34 |
| GGACAAAUUCUACAUCAGCTT against Adam8 | inactive: 0.28 |
| GGUAUCAAGUAUGACCUAGTT against Lrrc8 | inactive: -0.0351 |
| GGUCCUUCUUGUGUAGUCATT against Plac1 | inactive: -0.761 |
| GGUCUCUCCCAUGUUAAUCTT against Lcn3 | inactive: 1.91 |
| GGUACUAUCACAUCAUUAATT against Olfr1106 | inactive: 0.877 |
| GCAUAUGGAGAGAAUCCCATT against Apg4b | inactive: 2.59 |
| GGUGUUUGAUGUGGUGAACTT against 4632422M10Rik | inactive: -1.38 |
| GCUCCUAAUGGAAAGAACGTT against 2610311B01Rik | inactive: 0.469 |
| GGGCAACUACGAGUCUCUCTT against Zfp398 | inactive: -0.15 |
| GGAUUUUUCUAAUCGCUUGTT against 6820429M01 | inactive: 0.351 |
| GCCAGAAGACUGUAUACCATT against Rp9h | inactive: 0.317 |
| GGGCUCCUUUUUUUUUUUUTT against Frat1 | inactive: -0.554 |
| GCCAUGUUCAAUAUUAGGATT against Rps3a | inactive: -3.04 |
| GGAAGUCAACAAUGCAUUCTT against Olfr1451 | inactive: -0.0173 |
| GCACCUCCUGGGAUUACAUTT against Crp | inactive: 0.63 |
| UGAGUUGUUUCCAGCUAAATT against Urp | inactive: 1.42 |
| GCCCUCCUGUGAGUUUCUCTT against 8430406I07Rik | inactive: 0.022 |
| GCACAGAUAUGAGAUCUGUTT against 2310058J06Rik | inactive: 1.68 |
| GCUGAACCUAUGAGGGAGATT against Bat4 | inactive: -0.735 |
| GGAUGGACCAUCAGCUUCATT against Olfr1152 | inactive: -1.51 |
| GGGAUGAUAGAACUUCUCATT against 1700048E23Rik | inactive: -2.22 |
